# In PubChem BioAssay AID2685 (National Center for Advancing Translational Sciences (NCATS), 2010):
# The other results are listed elsewhere or left out. Further columns of the screen follow, without active or inactive calls. Compounds called inactive in the main read-out are mostly missing here. Words in brackets tell the shape of the fitted curve; partial curves, single points and poor fits give uncertain potencies.
# Assay: qHTS Assay for Lipid Storage Modulators in Drosophila S3 Cells;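 on cell number change: cells counted by Cell Tracker Red CMTPX staining in the red channel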
# Conditions: BODIPY lipid droplet fluorescence, 18-24 h; for cell number change: measured here: cell count max response, cells fed with added oleic acid
# Outline: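 Drosophila S3 cells loaded with oleic acid (400 uM, as added) and compounds at several concentrations; lipid droplets imaged by 488-nm laser-scanning cytometry, 500–530 nm intensity and object ratio to cell channel. Percent activity normalized to 20 uM Triacsin C.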
# [1] = measured here: cell number channel AC50, cells fed with added oleic acid
# [2] = measured here: lipid fluorescence (Fed channel) AC50, cells fed with added oleic acid
SMILES,cell number change,AC50 [1],AC50 [2]
O=c1[nH]nc(SCc2nnc(-c3cccc(Cl)c3)o2)n1C1CCCCC1,-35.9%,"0.00461 µM [falling, full curve, poor fit]",–
Cc1ccc(O)c(NC(=O)COc2cc(C)ccc2C)c1,–,–,"4.11 µM [rising, single point]"
CCn1cc(C(=O)NCc2ccc3c(c2)OCO3)c(=O)c2cc(S(=O)(=O)N3CCOCC3)ccc21,–,"0.411 µM [falling, full curve, poor fit]","0.411 µM [falling, full curve, poor fit]"
COc1ccc(Cn2c(-c3ccc(C)cc3)c[n+]3ccccc23)cc1,-30.8%,"25.9 µM [falling, partial curve, poor fit]","20.6 µM [falling, single point]"
CN1C(=O)N(C)C2C1NC(=O)N2C (stereo not given),6.41%,–,"29.1 µM [rising, single point]"
CC(C)(C)c1ccc(OC(=O)c2cccnc2)cc1,-49.8%,"23.1 µM [falling, partial curve, poor fit]","16.4 µM [falling, partial curve]"
Cc1ccc(-c2nc3ccccc3n3nnnc23)cc1,91.6%,"2.06 µM [rising, full curve]","2.31 µM [rising, full curve]"
O=C(CSc1ccc(Cl)cc1)Nc1cc(-c2nc3ncccc3o2)ccc1Cl,-58.9%,"11.6 µM [falling, partial curve]","18.4 µM [falling, partial curve]"
CCCSc1cc(=O)n(-c2ccccc2)nc1C(=O)O,-37.4%,–,"0.116 µM [falling, full curve, poor fit]"
O=C(Cc1cccs1)Nc1ccc(NC(=O)c2ccco2)cc1,-36.9%,"0.13 µM [falling, full curve, poor fit]","0.58 µM [falling, single point]"
Cc1nonc1NC(=O)CSc1nc2ccccc2o1,0.952%,–,"29.1 µM [rising, single point]"
CN1CCN(S(=O)(=O)c2ccc(SCCOc3ccccc3)nc2)CC1,-18.3%,–,–
N#CCCN(C(=O)COC(=O)c1ccc2c(c1)NC(=O)CS2)c1ccc2c(c1)OCCO2,17.5%,"6.51 µM [falling, single point]","0.517 µM [falling, partial curve, poor fit]"
CCOC(=O)c1c(C)nc2c(c1-c1ccc(OC)cc1)C(=O)CC(C)(C)C2,8.66%,–,"6.51 µM [falling, single point]"
Cc1cc(Cl)c(S(=O)(=O)Nc2ccc3c(c2)OCO3)cc1OCC(=O)NC1CCCCC1,32.6%,"3.66 µM [rising, full curve]","18.4 µM [rising, partial curve]"
CN(C(=O)COC(=O)CNC(=O)C12CC3CC(CC(C3)C1)C2)C1CCS(=O)(=O)C1 (stereo not given),-50%,"29.1 µM [falling, single point]",–
O=C(COc1ccc([N+](=O)[O-])cc1)NNC(=O)c1cccs1,28%,–,"6.51 µM [falling, single point]"
CCC(C)NC(=O)Cc1c(OC)ccc2cc(Br)ccc12 (stereo not given),10.8%,–,–
COc1ccccc1N1CCN(/N=C/C=C/c2ccccc2[N+](=O)[O-])CC1,-30.7%,"29.1 µM [falling, single point]","29.1 µM [falling, single point]"

SMILES,cell number change,AC50 [1],AC50 [2]
COc1ccc(CNc2nc3c(c(=O)n(Cc4ccc(F)cc4)c(=O)n3C)n2C)cc1,-19.5%,–,"6.51 µM [rising, single point]"
CN(C(=O)c1ccco1)c1nc(-c2ccc(F)cc2)cs1,-4.15%,–,–
COc1cc(NC(=O)c2cccs2)c(C(=O)OCC(=O)c2cc(C)n(-c3ccc(F)cc3)c2C)cc1OC,-7.41%,–,"29.1 µM [rising, single point]"
CC(=O)c1cnc(-c2ccccn2)s1,–,"0.164 µM [rising, full curve, poor fit]",–
C=CCOc1ccc(Br)cc1CNC(C)(C)CO,-2.55%,"0.13 µM [falling, full curve, poor fit]","0.82 µM [falling, full curve, poor fit]"
CCOC(=O)c1[nH]c2ccc(OCC)cc2c1CCCN1C(=O)c2ccccc2C1=O,23.9%,–,"0.651 µM [rising, full curve]"
CSc1nnc(CCNS(=O)(=O)c2ccc(Br)cc2)n1C,7.92%,–,"5.8 µM [rising, single point]"
CNC[C@H](Cc1ccccc1)NC[C@@H](Cc1cccc2ccccc12)NCCc1ccc(C)cc1,-18.3%,–,"29.1 µM [falling, single point]"
CS(=O)(=O)Nc1ccc(C(=O)Nc2ccc3c(c2)OCCO3)cc1,19.2%,"0.651 µM [falling, single point]","0.651 µM [falling, single point]"
CCS(=O)(=O)N1CCN(Cc2nc3ccccc3c(=O)[nH]2)CC1,14.6%,–,"4.61 µM [falling, single point]"
O=C(CN1C(=O)NC(Cc2ccccc2)C1=O)NC(=O)NC1CCCCC1 (stereo not given),-3.06%,–,"0.651 µM [falling, single point]"
COc1cccc(NC(=O)CN(C)C(=O)c2cc(-c3ccco3)nc3ccccc23)c1,20.6%,–,"1.84 µM [rising, partial curve]"
COc1ccccc1C(=O)N=C1SC2CS(=O)(=O)CC2N1c1ccccc1 (stereo not given),-5.86%,–,"6.51 µM [rising, partial curve, poor fit]"
NC(=O)c1c(NC(=O)c2ccccc2)sc2c1CCc1ccccc1-2,–,"6.51 µM [rising, single point]","4.11 µM [rising, partial curve]"
CCC1=C(OC(=O)N(CC)CC)N2C(=O)OC(=NCCOC)[C@]2(Cc2ccccc2)[C@H]2C1=CC[C@H]1C(=O)NC(=O)[C@H]12,–,–,"0.116 µM [rising, full curve, poor fit]"
COc1ccc(-c2csc(NC(=O)c3cc(C)oc3C)n2)cc1OC,-32.4%,"11.2 µM [falling, single point]",–
CC(NC(=O)c1cc2sccc2n1C)c1ccc2c(c1)OCCO2 (stereo not given),108%,"29.1 µM [rising, single point]",–
COc1ccc(F)cc1-c1nc(N)nc(N)n1,11.3%,–,–
O=C(Cc1nnc(NC(=O)Nc2ccccc2F)s1)NCc1ccccc1,-24.7%,–,"29.1 µM [falling, single point]"

SMILES,cell number change,AC50 [1],AC50 [2]
Cc1sc(NC(=O)c2ccccc2)c(C(=O)c2ccccc2)c1C,22.6%,–,"2.06 µM [rising, partial curve]"
O=C(NCc1ccccn1)C(=O)NCc1ccccn1,6.38%,–,"0.58 µM [falling, single point]"
Cc1ccnc(NC(=O)c2ccc3c(c2)NC(=O)C(C)S3)c1 (stereo not given),-7.02%,–,–
O=C(Nc1ccc(NC(=O)C2CC2)nc1)c1ccccn1,-11.1%,–,–
CCOc1cc(C(=O)N2CCC(CC3CC(c4ccc(Cl)cc4)=NO3)(C(=O)NCC3CCCCC3)CC2)cc(OCC)c1OCC (stereo not given),20.4%,–,"5.17 µM [falling, full curve]"
Cc1ccnc(NS(=O)(=O)c2ccc(Oc3ccccc3)cc2)c1,-3.75%,–,–
CCc1ccc(C(=O)NNC(=O)C2CCN(c3ncnc4sc(C)c(C)c34)CC2)cc1,32.3%,"3.26 µM [rising, full curve, poor fit]",–
Cc1ccc(S(=O)(=O)N2CCOCC2)cc1C(=O)Nc1cccc(C(=O)NC2CC2)c1,-52.3%,"29.1 µM [falling, single point]","29.1 µM [falling, single point]"
CN(C)C(CNC(=O)c1cc2ccccc2oc1=O)c1ccccc1 (stereo not given),14.1%,–,"1.3 µM [rising, full curve]"
CC1CCc2c(sc(NC(=O)c3ccc(Cn4cc(Br)cn4)o3)c2C(N)=O)C1 (stereo not given),107%,"2.91 µM [rising, full curve]","3.26 µM [rising, full curve]"
O=C(N[C@@H]1CCC(=O)N(CC[C@H](Oc2ccccc2)c2ccccc2)CC1)OCc1ccccc1,-27.5%,–,–
Cc1ccc(OCCn2cnc3cc([N+](=O)[O-])ccc3c2=O)cc1,46%,"10.3 µM [rising, partial curve, poor fit]",–
CCOc1ccc2[nH]c3c(NCC(C)C)ncnc3c2c1,-38.3%,"29.1 µM [falling, single point]","29.1 µM [falling, single point]"
COc1cc(-c2nc(CN3CCCCC3CCNC(C)=O)c(C)o2)ccc1F (stereo not given),-7.95%,–,"4.61 µM [falling, single point]"
C=CCn1c(=O)/c(=C2/Sc3cc(OC)ccc3N2C)s/c1=C1\C(=O)N(CC)C(=S)N1C,-50%,"20.6 µM [falling, partial curve]","1.64 µM [falling, partial curve]"
Cc1ccc(S(=O)(=O)CCC(=O)OCn2nnc3ccccc3c2=O)cc1,-8.27%,–,–
COc1nc(-c2ccc(C)cc2)ccc1-c1noc(-c2cccnc2)n1,1.7%,–,"6.51 µM [rising, single point]"
CCCCN1C(=O)/C(=C2/Sc3ccccc3N2C)S/C1=N\c1ncn[nH]1,-64.2%,"13 µM [falling, partial curve]","29.1 µM [falling, partial curve, poor fit]"

# Entries of single compounds as entered above.
# Cc1ccc(OCCn2cnc3cc([N+](=O)[O-])ccc3c2=O)cc1 is entered as cell number change: 46%; AC50 [1]: 10.3 µM [rising, partial curve, poor fit]
# CCCCN1C(=O)/C(=C2/Sc3ccccc3N2C)S/C1=N\c1ncn[nH]1 is entered as cell number change: -64.2%; AC50 [1]: 13 µM [falling, partial curve]; AC50 [2]: 29.1 µM [falling, partial curve, poor fit]
# Cc1ccc(S(=O)(=O)N2CCOCC2)cc1C(=O)Nc1cccc(C(=O)NC2CC2)c1 is entered as cell number change: -52.3%; AC50 [1]: 29.1 µM [falling, single point]; AC50 [2]: 29.1 µM [falling, single point]
